PMC7159925
Results are given in words; binding and its absence hold for the method and conditions named. Binding seen in cells or lysates may run through a third protein. Some results given as binding are weak or reduced against the parent protein; the word gives no strength. Tags and fused reporters may be left off the sequences shown.

The chains behind the UniProt entries cited, without tags or fusion partners.
UniProt Q10658: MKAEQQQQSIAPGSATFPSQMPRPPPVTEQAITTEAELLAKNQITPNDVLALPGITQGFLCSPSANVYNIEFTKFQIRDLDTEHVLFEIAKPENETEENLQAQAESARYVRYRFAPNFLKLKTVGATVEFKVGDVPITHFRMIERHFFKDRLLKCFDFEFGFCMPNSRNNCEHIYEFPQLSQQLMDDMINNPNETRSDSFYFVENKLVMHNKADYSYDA

Target: bio-mCherry-UNC-119 (C. elegans) (UniProt Q10658)
Assay: pull-down; streptavidin coated magnetic beads with lysates of HEK293T cells coexpressing BirA, bio-mCherry-UNC-119 (bait) and a GFP labeled prey; 1 hr at 4°C; 100 mM Tris-HCl pH 7.5, 150 mM NaCl, 1% Triton X-100; western blot

B1: UNC-33L::GFP (protein, UniProt Q01630 1-854)
chain: MFPFLAPIRSANHVEQQGTKYYVEITFLADSPYSRAPSSTGTEKSVIPTLRNLDDLETVSNKSRSSEGVNKLGSRPNSRSSAIVKKTSVSSLPTSARSEGKSSPIPVKDAIPAPARHKNKGLEMSSAMMELFGGGGSTSPAPSKRENPADAPSDRVVSNAKLSQPGPEWFEGFEQMDMTDIELPPDPNCPAEKVLRGEKSTPDFDSDWQEAKEDVLDPQSYPKSFNPAESLPGPDIGAGVDDEEEPEAEAQEMEEPQYESKVDEKDDDDNGSSSSKKGHPSEDGDSTRNGETPTDRRNSGAIEETADGESSAQSAAEKKNSGDDGNGGGGEMSILLVKNAQIVNDDAIFVADILIEDGIIQNVAPNLEAPEGAEVLDAAGKLALPAGIDVYTQVTDSSVDDLSTGCKSAIAGGTGTIVEVVRPRGAESVVSAVKRVKNQLEKSGISCHVALSVAITDFCEQEMSELVKNEGINSFVLDGVSLTDDKLLELFEHVKRLGALIRVVPENKSIVAMLEKKMLKLGVTGPEGFPQSRPESLEADRVSGVCVLGNLASCPISIVQVSSADSLAAIEKARASGALAHAEIASAAVTADGSALFSQDLRFASAHLTDVPLRRGAPDRMIGALSTQPLVVCTSGHRPVNSATRVAAKDFAIAQKGSTGAEERMAVVWERAVRSGRIDAMRFVAVTSTNAAKMFNMYPKKGRIAVGADADLVIWDASGKRVLESSRAQSSQENSMYDGLTVHSVVTATIVGGKIAYQNGEVREAPVAGGFLRLSPNSPYLFSMVGQRDKFANVERVEREASSQQQKPQQNGHHKNSGDFDRNRTKVMESSIDFGGSAANRPRNPPGGRTTGFW
binding: binds
